Measurements as given in PubChem BioAssay AID2662 (National Center for Advancing Translational Sciences (NCATS), 2010).
Out of some 290,000 compounds screened, about 110 (0.038%) were called active. The inconclusive results got no clear call from the source; some entries with a clear call stand among them for comparison. Calls follow the shape of the dose curve; as a rule, active = well fitted inhibition curve with a large enough effect in the polarisation, with a control signal flat (not every such curve was filed as active); inconclusive = small, poorly fitted or top-dose-only effect, or effect the other way, or a change in a side signal; inactive = no such curve, though single readings can be large or run the other way; the % refers to the polarisation. Potencies of inconclusive entries are doubtful fits and often do not repeat. A note “side channel” means that the fit belongs to a control or component signal, not to the main read-out.

Chains of the proteins cited; added tags and fusions are not shown.
UniProt Q03164, whole entry, looked up: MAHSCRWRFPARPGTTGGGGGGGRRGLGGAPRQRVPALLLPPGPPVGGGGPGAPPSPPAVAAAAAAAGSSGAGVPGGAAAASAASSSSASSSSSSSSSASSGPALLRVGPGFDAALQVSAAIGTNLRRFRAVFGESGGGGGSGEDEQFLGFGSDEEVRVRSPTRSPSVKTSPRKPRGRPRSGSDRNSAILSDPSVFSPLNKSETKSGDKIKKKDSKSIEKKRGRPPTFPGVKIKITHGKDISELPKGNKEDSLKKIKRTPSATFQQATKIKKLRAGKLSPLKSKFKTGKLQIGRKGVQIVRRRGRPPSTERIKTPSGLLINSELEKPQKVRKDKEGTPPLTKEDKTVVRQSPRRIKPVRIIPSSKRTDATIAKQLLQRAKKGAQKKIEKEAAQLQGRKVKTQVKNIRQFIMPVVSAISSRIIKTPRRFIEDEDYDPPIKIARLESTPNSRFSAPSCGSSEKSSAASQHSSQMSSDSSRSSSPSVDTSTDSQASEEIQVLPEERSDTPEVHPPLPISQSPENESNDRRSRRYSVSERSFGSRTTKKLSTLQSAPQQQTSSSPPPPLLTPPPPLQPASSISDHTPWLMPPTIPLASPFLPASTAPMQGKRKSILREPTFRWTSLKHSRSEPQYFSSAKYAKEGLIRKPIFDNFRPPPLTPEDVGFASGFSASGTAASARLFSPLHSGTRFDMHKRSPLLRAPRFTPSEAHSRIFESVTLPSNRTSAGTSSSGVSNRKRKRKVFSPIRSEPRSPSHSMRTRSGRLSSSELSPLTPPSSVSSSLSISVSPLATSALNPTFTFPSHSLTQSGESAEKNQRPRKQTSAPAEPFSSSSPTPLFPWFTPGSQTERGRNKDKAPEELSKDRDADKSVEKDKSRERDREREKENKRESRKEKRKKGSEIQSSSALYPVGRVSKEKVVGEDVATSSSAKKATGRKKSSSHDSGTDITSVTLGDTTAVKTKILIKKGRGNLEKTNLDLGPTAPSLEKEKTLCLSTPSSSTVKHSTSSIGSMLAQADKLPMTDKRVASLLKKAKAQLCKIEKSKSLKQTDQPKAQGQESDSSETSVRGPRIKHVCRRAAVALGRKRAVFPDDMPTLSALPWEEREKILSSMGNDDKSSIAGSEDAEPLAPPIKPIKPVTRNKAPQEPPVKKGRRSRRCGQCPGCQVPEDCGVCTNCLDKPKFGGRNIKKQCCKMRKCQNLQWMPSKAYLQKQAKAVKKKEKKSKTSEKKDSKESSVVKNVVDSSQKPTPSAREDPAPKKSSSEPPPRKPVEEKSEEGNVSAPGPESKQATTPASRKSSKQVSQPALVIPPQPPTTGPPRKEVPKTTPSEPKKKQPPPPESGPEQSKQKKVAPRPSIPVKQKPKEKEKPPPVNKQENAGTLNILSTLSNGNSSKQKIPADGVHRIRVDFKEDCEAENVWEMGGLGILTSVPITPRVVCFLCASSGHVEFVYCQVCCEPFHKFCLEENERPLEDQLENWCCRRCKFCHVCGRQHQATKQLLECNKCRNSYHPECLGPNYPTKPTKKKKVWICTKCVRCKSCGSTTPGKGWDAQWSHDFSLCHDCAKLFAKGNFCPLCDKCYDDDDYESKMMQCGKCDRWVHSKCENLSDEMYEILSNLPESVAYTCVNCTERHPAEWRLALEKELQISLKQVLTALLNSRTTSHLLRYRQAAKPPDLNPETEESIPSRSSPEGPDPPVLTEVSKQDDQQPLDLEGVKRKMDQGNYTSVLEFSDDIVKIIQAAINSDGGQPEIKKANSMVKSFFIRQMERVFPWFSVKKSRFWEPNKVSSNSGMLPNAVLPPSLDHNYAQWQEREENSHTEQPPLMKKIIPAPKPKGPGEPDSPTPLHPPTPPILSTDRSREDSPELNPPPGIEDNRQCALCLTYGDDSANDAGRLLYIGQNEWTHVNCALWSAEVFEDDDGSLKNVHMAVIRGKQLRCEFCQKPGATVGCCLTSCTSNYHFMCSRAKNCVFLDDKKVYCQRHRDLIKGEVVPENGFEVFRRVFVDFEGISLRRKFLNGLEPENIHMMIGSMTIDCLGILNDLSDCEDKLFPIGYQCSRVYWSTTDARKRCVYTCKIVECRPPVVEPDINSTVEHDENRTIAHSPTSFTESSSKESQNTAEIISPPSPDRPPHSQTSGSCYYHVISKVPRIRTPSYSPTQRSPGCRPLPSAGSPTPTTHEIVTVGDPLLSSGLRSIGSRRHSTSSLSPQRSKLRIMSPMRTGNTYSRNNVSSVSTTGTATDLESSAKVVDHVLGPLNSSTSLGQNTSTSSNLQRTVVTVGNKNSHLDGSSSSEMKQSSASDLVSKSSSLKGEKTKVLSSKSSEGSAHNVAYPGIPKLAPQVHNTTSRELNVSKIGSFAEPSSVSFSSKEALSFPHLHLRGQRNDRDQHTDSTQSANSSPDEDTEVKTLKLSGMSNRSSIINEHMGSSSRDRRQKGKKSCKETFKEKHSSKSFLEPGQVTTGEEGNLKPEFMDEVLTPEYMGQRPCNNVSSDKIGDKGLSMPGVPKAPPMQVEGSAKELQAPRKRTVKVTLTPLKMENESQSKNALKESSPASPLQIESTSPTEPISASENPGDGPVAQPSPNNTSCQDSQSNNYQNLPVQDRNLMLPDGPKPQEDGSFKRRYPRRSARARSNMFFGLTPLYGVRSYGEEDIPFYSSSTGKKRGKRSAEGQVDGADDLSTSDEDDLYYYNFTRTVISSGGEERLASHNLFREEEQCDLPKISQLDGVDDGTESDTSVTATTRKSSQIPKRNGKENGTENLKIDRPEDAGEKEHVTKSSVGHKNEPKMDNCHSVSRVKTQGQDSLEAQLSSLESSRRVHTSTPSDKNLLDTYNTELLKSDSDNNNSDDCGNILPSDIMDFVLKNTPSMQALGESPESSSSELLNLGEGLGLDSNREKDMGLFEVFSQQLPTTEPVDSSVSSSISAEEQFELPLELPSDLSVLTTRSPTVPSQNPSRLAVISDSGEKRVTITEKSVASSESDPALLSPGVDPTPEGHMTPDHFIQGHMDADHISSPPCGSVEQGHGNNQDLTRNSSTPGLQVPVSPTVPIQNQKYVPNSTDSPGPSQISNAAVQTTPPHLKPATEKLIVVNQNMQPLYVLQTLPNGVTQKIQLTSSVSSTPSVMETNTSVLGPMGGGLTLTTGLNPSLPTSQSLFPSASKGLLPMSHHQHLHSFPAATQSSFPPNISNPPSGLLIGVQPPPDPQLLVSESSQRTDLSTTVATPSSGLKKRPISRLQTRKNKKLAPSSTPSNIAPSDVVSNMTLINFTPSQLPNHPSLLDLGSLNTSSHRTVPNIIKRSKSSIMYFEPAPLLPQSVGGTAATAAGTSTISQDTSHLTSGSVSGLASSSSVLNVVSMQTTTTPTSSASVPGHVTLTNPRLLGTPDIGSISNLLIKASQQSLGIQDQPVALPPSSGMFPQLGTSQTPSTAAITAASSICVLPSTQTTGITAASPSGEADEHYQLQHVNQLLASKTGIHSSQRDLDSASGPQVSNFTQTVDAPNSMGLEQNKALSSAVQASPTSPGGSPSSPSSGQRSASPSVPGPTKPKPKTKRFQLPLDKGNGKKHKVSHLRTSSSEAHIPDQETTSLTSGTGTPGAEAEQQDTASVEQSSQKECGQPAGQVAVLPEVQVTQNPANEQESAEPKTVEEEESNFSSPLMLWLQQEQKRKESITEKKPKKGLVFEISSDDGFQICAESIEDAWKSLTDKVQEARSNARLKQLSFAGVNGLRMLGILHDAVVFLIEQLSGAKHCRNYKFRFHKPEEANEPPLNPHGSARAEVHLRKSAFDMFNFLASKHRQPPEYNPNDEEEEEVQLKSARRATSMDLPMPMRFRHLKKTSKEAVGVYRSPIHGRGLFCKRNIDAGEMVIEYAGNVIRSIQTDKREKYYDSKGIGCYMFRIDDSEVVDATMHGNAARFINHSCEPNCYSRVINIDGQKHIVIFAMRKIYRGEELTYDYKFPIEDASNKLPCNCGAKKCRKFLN

Biological target: Histone-lysine N-methyltransferase 2A (Homo sapiens) (UniProt Q03164)
Experiment: qHTS Fluorescence Polarization Assay for Inhibitors of MLL CXXC domain - DNA interaction
Details: MLL-CXXC / FITC-HOXA9 DNA fluorescence polarization; series mostly up to 115 µM
Summary of the method: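 Fluorescence polarization: 7 uM MLL-CXXC (stock) preincubated 5 min with compounds, then 50 nM fluorescein-HOX-A9 DNA (stock) added; 30 min ambient. Buffer 50 mM Tris-HCl pH 7.5, 50 mM NaCl, 1 mM DTT, 0.05% BSA.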
Potency is read from the fitted curve at half-maximal effect.

Compound | Potency
O=C(Nc1ccnn1C1CCN(C(=O)c2c(F)cccc2F)CC1)C1CC1 | inconclusive: 8.91 µM [quencher, side channel, single point]
OCCCc1cn(Cc2ccccc2)c2ccccc12 | inactive
COc1ccc(-n2c(SC(C)C(=O)Nc3ccc(NC(C)=O)cc3)nc3ccccc3c2=O)cc1OC (centres undefined) | inconclusive: 10 µM [inhibitor, single point]
N/C(=N\OC(=O)c1cccs1)c1ccccc1 | inconclusive: 2.82 µM [fluorescent, side channel, full curve, poor fit]
CCOC(=O)C1=C(C)N=c2s/c(=C\c3ccc(OCC(=O)O)cc3)c(=O)n2C1c1ccc(Cl)cc1 (centres undefined) | inconclusive: 39.8 µM [fluorescent, side channel, partial curve]
O=C(CCc1ccc(O)cc1)c1c(O)cc(O)cc1O | inconclusive: 31.6 µM [inhibitor, single point]
C#CCOc1c(Br)cc(/C=C2/C(=O)ON=C2C)cc1OC | inconclusive: 14.1 µM [inhibitor, single point]
N#Cc1c2c(c(NCc3cccnc3)n3c1nc1ccccc13)CCC2 | inactive
CC(=O)c1c(O)cc(O)cc1CC(=O)O | inconclusive: 35.5 µM [inhibitor, partial curve]
Cc1ccc(/C=N/Nc2nc3ccccc3s2)o1 | inactive
Cc1cc(C)c2nc(NC(=O)[C@@H](NC(=O)c3cccc(S(=O)(=O)N4CCOCC4)c3)C(C)C)sc2c1 | inconclusive: 12.6 µM [fluorescent, side channel, full curve, poor fit]
COCCNC(=O)c1ccccc1NC(=O)CN(c1ccc2c(c1)OCO2)S(C)(=O)=O | inactive
Cc1ccc(-c2nc3sc(C#N)c(N)n3c(=O)c2C#N)cc1 | inconclusive: 44.7 µM [fluorescent, side channel, single point]
COc1ccc(S(=O)(=O)Cc2ccc(C(=O)NC3CCCCC3)o2)cc1 | inactive
COc1ccccc1C(=O)Nc1cc(Cl)ccc1-n1cncn1 | inconclusive: 39.8 µM [fluorescent, side channel, single point]
O=C1c2[nH]nc(-c3ccccc3O)c2C(c2ccc(F)cc2)N1Cc1ccco1 (centres undefined) | inactive
Cc1ccc(NC(=O)CN2C(=O)S/C(=C\c3cc(Cl)c(OCC(=O)O)c(Cl)c3)C2=O)cc1 | inconclusive: 28.2 µM [inhibitor, partial curve]
COc1cccc(N(CC(=O)NC(C)c2ccccc2)S(C)(=O)=O)c1 (centres undefined) | inactive
CCC(=O)OC1C(N(C)C)CC(C)O[C@H]1O[C@H]1[C@H](C)[C@@H](O[C@H]2CC(OC)[C@@H](O)C(C)O2)[C@H](C)C(=O)O[C@@H](CC)[C@](C)(O)[C@@H](O)[C@H](C)C(=O)[C@@H](C)C[C@]1(C)O (some centres undefined) | inactive

As a short view, some entries already given:
Compound | Potency
C#CCOc1c(Br)cc(/C=C2/C(=O)ON=C2C)cc1OC | inconclusive: 14.1 µM [inhibitor, single point]
N#Cc1c2c(c(NCc3cccnc3)n3c1nc1ccccc13)CCC2 | inactive
